No constants are given. Whether binding was seen depends on the method and setting. In cells and extracts the contact can be indirect. Some results given as binding are weak or reduced against the parent protein; the word gives no strength.
Key:
Assay in all cases: co-IP
KLHL11 = biological target: T1, KLHL11 (UniProt Q9NVR0)
T1 sequence: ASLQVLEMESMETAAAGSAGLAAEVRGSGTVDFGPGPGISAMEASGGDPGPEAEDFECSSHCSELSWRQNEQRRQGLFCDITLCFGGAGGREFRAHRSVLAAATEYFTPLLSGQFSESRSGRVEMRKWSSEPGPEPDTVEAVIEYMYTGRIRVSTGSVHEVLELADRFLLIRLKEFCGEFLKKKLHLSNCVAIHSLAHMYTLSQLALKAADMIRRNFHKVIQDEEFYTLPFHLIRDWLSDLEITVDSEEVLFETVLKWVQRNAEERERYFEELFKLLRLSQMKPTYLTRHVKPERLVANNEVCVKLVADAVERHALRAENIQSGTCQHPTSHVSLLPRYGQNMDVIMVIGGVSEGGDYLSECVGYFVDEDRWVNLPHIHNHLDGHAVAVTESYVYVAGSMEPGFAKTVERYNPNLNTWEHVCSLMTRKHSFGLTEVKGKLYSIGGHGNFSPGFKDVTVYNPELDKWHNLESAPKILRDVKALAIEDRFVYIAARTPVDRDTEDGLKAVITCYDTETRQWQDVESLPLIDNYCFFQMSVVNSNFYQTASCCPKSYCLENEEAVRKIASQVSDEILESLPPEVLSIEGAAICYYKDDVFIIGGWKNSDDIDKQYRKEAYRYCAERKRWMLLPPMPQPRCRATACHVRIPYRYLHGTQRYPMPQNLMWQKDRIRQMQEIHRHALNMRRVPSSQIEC

Amino acid sequences for entries named in this document (tags omitted).
UniProt Q92963: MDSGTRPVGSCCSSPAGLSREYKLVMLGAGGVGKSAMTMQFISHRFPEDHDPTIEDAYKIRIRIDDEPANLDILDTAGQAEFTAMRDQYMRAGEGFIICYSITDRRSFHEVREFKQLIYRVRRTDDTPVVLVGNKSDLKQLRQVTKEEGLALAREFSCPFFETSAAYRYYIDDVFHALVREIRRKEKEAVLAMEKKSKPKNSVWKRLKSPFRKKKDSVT

KLHL26 = biological target: T2, KLHL26 (UniProt Q53HC5)
T2 sequence: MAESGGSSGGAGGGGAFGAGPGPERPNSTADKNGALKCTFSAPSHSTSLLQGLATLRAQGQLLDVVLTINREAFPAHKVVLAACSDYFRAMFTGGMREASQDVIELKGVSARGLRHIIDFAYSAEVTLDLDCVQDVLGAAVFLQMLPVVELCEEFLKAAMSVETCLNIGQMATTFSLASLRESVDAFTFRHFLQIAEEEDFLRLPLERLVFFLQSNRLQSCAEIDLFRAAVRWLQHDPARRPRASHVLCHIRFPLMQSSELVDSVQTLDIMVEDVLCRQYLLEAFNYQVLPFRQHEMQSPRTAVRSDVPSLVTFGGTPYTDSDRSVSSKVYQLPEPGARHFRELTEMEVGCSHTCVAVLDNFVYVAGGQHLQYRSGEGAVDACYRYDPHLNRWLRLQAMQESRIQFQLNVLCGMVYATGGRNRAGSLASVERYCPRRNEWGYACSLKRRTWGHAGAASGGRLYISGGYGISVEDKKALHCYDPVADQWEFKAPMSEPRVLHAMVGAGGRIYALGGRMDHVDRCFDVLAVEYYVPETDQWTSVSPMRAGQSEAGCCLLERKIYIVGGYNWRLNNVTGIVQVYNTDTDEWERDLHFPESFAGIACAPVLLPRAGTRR

KLHL8 = biological target: T3, KLHL8 (UniProt Q9P2G9)
T3 sequence: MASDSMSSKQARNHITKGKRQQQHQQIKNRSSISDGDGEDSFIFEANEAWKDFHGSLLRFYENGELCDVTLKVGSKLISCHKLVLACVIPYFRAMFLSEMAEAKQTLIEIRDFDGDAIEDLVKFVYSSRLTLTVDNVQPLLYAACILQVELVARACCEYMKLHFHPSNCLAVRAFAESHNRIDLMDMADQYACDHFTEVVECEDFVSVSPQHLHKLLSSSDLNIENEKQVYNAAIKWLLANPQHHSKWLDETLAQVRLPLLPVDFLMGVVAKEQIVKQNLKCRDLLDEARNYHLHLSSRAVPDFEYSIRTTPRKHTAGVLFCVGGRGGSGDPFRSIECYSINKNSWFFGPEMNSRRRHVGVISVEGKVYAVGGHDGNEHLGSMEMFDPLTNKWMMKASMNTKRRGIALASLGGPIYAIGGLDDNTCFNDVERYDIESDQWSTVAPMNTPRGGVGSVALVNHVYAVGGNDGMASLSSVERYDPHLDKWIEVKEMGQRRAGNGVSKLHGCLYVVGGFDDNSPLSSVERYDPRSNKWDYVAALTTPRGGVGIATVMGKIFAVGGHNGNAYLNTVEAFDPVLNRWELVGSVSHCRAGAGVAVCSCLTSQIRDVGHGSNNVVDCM

LZTR1 R810W = biological target: T4, LZTR1 R810W (UniProt Q8N653)
T4 sequence: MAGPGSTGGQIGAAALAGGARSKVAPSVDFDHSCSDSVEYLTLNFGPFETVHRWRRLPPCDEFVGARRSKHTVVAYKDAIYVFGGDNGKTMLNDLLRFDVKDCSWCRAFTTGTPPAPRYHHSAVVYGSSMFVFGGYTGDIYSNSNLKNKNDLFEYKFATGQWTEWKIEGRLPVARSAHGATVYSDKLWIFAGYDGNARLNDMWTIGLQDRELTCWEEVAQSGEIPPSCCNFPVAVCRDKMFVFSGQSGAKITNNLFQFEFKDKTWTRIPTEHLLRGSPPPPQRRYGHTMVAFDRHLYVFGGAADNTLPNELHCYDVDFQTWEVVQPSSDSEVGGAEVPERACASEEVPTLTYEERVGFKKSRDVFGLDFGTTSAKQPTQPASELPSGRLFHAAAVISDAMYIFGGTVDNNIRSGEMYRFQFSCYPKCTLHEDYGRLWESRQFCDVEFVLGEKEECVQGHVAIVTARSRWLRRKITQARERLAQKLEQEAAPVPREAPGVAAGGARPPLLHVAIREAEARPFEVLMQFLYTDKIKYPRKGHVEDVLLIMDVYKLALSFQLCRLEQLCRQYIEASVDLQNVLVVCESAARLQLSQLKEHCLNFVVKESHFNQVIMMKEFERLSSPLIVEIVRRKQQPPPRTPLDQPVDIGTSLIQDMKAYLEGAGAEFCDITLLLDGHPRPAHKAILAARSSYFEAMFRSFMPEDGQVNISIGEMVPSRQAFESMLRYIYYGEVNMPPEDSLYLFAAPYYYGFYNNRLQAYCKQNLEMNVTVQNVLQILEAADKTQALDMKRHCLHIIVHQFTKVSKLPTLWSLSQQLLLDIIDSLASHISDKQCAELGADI

binding (KLHL11): no binding
binding (KLHL26): no binding
binding (KLHL8): no binding
binding (LZTR1 R810W): binds
Substance: RIT1, wild type, full length (Figs 1H, 3B, 3G, 4B) (from UniProt Q92963 1-219)

— doi:10.1101/2020.03.14.989954
